Data taken from US6723897B2, “Methods for controlling gibberellin levels” (Monsanto Technology, LLC, priority 1998, dated 2004).

Test: Endogenous GA1 and GA4 levels in mature soybean seeds (GC/MS)
Set-up: species or system Glycine max

Row | Structure (SMILES) | level in mature A3237 soybean seeds (purification Method B) [ng/gfwt] | level in mature A3237 soybean seeds (based on three experiments) [ng/g fwt] | level in mature A3237 soybean seeds (purification Method A) [ng/gfwt]
1 | C=C1C[C@]23C[C@@]1(O)CC[C@H]2[C@@]12CC[C@H](O)[C@@](C)(C(=O)O1)[C@H]2[C@@H]3C(=O)O [GA1] | 0.14 | – | –
2 | C=C1C[C@]23C[C@H]1CC[C@H]2[C@@]12CC[C@H](O)[C@@](C)(C(=O)O1)[C@H]2[C@@H]3C(=O)O [GA4] | – | 0.33 | 0.33
